Assay results from PubChem BioAssay AID493014 (National Center for Advancing Translational Sciences (NCATS), 2011).
The list shows a part of the results. Further columns of the screen follow, without active or inactive calls. Most of these compounds were active or inconclusive in the main read-out, so they are no random draw. The note in brackets gives the kind of curve behind each potency; many fits are weak.

Test: qHTS Assay to Find Inhibitors of Chronic Active B-Cell Receptor Signaling
Details: ABC-DLBCL IkBa-CBG/CBR reporter, luminescence ratio (green luciferase fused to IkBa over red control in TMD8 lymphoma cells), 4 h
Summary of the method: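 Cell line TMD8 (human ABC DLBCL), stably expressing tet-inducible CBG68-IkBa fusion and CBR; IMDM/0.5% FBS; cpd up to 46 uM; dox induction, 4 h, 37C/5% CO2; dual luminescence; green/red ratio; MG132 control.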

[1] = measured here: CBR red luminescence, cell number
[2] = measured here: IkBa-CBG green luminescence

Compound	AC50 [1]	AC50 [2]
CSc1ccc(C2NC(=O)c3c(sc4c3CCN(C)C4)N2)cc1 (stereo not drawn)	0.731 µM [rising, full curve, poor fit]	–
Cc1cc(C(=O)NNC(=O)c2cccc(N(C)C)c2)c(C)o1	11.2 µM [falling, partial curve, poor fit]	–
O=C(Nc1cccn2ncnc12)c1ccccc1	10 µM [falling, partial curve, poor fit]	–
CN(C1=NC(=O)C(CC(=O)Nc2ccc(Br)cc2)S1)c1ccc(O)cc1 (stereo not drawn)	29.1 µM [falling, single point]	–
Cc1nnc2sc(-c3ccc(NC(=O)CSc4ccc(Cl)cc4)cc3)nn12	1.46 µM [falling, partial curve, poor fit]	–
Cc1ccccc1OCc1nc2ccccc2c(=O)n1/N=C/c1cccc([N+](=O)[O-])c1	0.651 µM [falling, full curve, poor fit]	–
Cc1cccc(N2CCN(S(=O)(=O)c3ccc4c(c3)CCN4C(=O)CCC(=O)O)CC2C)c1 (stereo not drawn)	29.1 µM [rising, single point]	–
CCCCNS(=O)(=O)c1ccc(NC(=O)c2cccs2)cc1	28.2 µM [falling, single point]	–
CCn1cc(/C=C/C(=O)Nc2ccn(Cc3c(F)c(F)c(F)c(F)c3F)n2)cn1	23.1 µM [falling, single point]	–
COc1ccc(NC(=O)c2cccc(Cl)c2)c[n+]1[O-]	2.82 µM [rising, full curve, poor fit]	–
CCCCN(CC)C(=S)Nc1ccc2nc3n(c(=O)c2c1)CCCCC3	20.6 µM [rising, partial curve, poor fit]	–
C[C@@H]1C[C@H]2[C@@H]3C[C@H](F)C4=CC(=O)C=C[C@]4(C)[C@@]3(F)[C@@H](O)C[C@]2(C)[C@@]1(O)C(=O)CO	0.00411 µM [rising, full curve, poor fit]	5.17 µM [falling, full curve, poor fit]
O=C(COC(=O)c1cccnc1Cl)NCCc1ccccc1	16.4 µM [rising, single point]	–
Cc1ccc(-n2c(CC#N)n[nH]c2=S)c(C)c1	35.5 µM [rising, single point]	–
CCn1c(CNC(=O)c2ccc(OC)cc2)nnc1SCC(=O)c1ccccc1	2.91 µM [falling, partial curve, poor fit]	–
O=C(O)CCSc1ccc([N+](=O)[O-])cc1[N+](=O)[O-]	35.5 µM [rising, single point]	35.5 µM [falling, single point]
FC(F)(F)c1cccc(NC(=S)NCc2ccc(Cl)cc2)c1	22.4 µM [falling, partial curve, poor fit]	–
CC1(C)CC(=O)C(/C=N/c2ncccc2C(=O)O)=C(O)C1	18.4 µM [rising, single point]	29.1 µM [falling, single point]
O=C1N[C@H](Cc2ccccc2)COC(=O)[C@@H](Cc2ccc(F)cc2)CC/C=C/C[C@H]1CC(=O)N(CCO)Cc1ccccc1	8.2 µM [falling, single point]	–
COc1ccc(Cc2nc3ccccc3[nH]c2=O)cc1	1.41 µM [falling, partial curve, poor fit]	–
CCCc1[nH]n(-c2ccc([N+](=O)[O-])cc2)c(=O)c1C=NCCc1c[nH]c2ccccc12	0.58 µM [rising, partial curve, poor fit]	–

Some of the entries so far, bar-delimited:
Compound | AC50 [1] | AC50 [2]
CCn1c(CNC(=O)c2ccc(OC)cc2)nnc1SCC(=O)c1ccccc1 | 2.91 µM [falling, partial curve, poor fit] | –
O=C(O)CCSc1ccc([N+](=O)[O-])cc1[N+](=O)[O-] | 35.5 µM [rising, single point] | 35.5 µM [falling, single point]
FC(F)(F)c1cccc(NC(=S)NCc2ccc(Cl)cc2)c1 | 22.4 µM [falling, partial curve, poor fit] | –

Following part.

Compound	AC50 [1]	AC50 [2]
COc1ccccc1/C=C1\CCCC2=C1Nc1nnnn1C2c1ccccc1OC (stereo not drawn)	29.1 µM [falling, single point]	–
COc1ccc(C(=O)Oc2ccc[nH]c2=O)cc1	3.98 µM [falling, single point]	–
CCN(CC)c1c([N+](=O)[O-])c(=O)n(CC)c2ccccc12	0.141 µM [rising, full curve, poor fit]	–
O=C(CSc1nn(-c2ccccc2)c(=S)s1)NC(=O)NCc1ccco1	0.164 µM [falling, full curve, poor fit]	–
CN(C)/C=N/c1sc2c(c1C#N)CCCC2	11.2 µM [rising, partial curve, poor fit]	17.8 µM [falling, partial curve]
COc1cccc(CNC(=O)C2Cc3cc(S(=O)(=O)N4CCCC4)ccc3N2C(C)=O)c1OC (stereo not drawn)	12.6 µM [rising, partial curve, poor fit]	–
O=C1CSC(=Nc2cccc(C(=O)O)c2)N1	25.1 µM [falling, single point]	–
Cc1cc(F)ccc1S(=O)(=O)N1CCCOC1CNC(=O)C(=O)NCc1cccnc1 (stereo not drawn)	5.01 µM [rising, partial curve, poor fit]	–
CCc1cccc(CC)c1N(COC)C(=O)Cn1ccccc1=N	2.82 µM [rising, partial curve, poor fit]	–
C=C(C(=O)c1ccccc1)C(C)CC(=O)c1ccccc1 (stereo not drawn)	10.3 µM [falling, partial curve]	–
Cc1c(Cl)cccc1NC(=O)CSc1nc2c(c(=O)[nH]1)CCCC2	0.92 µM [falling, full curve, poor fit]	–
COc1cccc(Oc2ccc(S(=O)(=O)N3CCCC3)cc2[N+](=O)[O-])c1	6.31 µM [falling, partial curve, poor fit]	–
CCC(=O)NCCc1nc2cc(NC(=O)c3cccs3)ccc2n1C	8.91 µM [falling, partial curve, poor fit]	–
CCN(CC(=O)Nc1ccccc1OC)C(=O)c1cc(-c2ccccc2)nn1-c1ccccc1	0.731 µM [rising, full curve]	–
O=C(COC(=O)/C=C/c1cccc(Br)c1)NC1CCCCC1	29.1 µM [rising, single point]	–
CCCCC(=O)N(c1ccc(OC)cc1)C1C=CS(=O)(=O)C1 (stereo not drawn)	1.64 µM [rising, full curve, poor fit]	–
CC1CCN(c2nncc3ccccc23)CC1	3.98 µM [rising, partial curve, poor fit]	–
Cc1c(Cl)cccc1NC(=O)CNC(=O)C1CC(=O)N(C2CCCC2)C1 (stereo not drawn)	4.11 µM [falling, partial curve]	–
O=C(N/N=C/c1ccc([N+](=O)[O-])o1)c1ccncc1	17.8 µM [falling, single point]	–
COc1ccc(N2C(=O)CC(Sc3nnc(-c4ccccc4)o3)C2=O)cc1 (stereo not drawn)	35.5 µM [falling, single point]	–
COC(=O)c1cc(Br)c(=O)n(CC(C)C)c1	0.092 µM [falling, full curve, poor fit]	–

Compound	AC50 [1]	AC50 [2]
CC(C)Cn1c(SC(C)C(=O)Nc2ccc(N3CCOCC3)cc2)nc2ccccc21 (stereo not drawn)	18.4 µM [rising, single point]	–
Cc1ccc(Nc2c(F)c(F)c(F)c(F)c2C(=O)O)cc1	17.8 µM [rising, partial curve, poor fit]	–
CCCCSc1nnc(-c2ccccc2)c2ccccc12	4.11 µM [rising, full curve]	–
CCOc1ccc(Nc2nc(N)c3ccccc3n2)cc1	11.2 µM [falling, partial curve]	–
COc1ccc(OC)c(C(C(=O)NCc2ccco2)N(C(=O)Cn2nnc3ccccc32)C(C)C)c1 (stereo not drawn)	0.92 µM [rising, partial curve, poor fit]	–
COc1ccc(Nc2nccc(OC)c2C#N)cc1	10 µM [rising, partial curve]	–
O=c1c(Cl)c(Cl)cnn1Cc1ccc(F)cc1	7.94 µM [falling, partial curve, poor fit]	2.51 µM [rising, full curve, poor fit]
CCCc1cc(C(N)=O)c(NC(=O)c2ccoc2C)s1	0.82 µM [falling, partial curve, poor fit]	–
Cc1ccc(NS(=O)(=O)c2cc(Br)cc3c2N(C(=O)C2CC2)CC3)cc1C	35.5 µM [falling, single point]	–
O=C(CSc1nc2ncc(Cl)cc2[nH]1)Nc1ccccc1-c1ccccc1	12.6 µM [falling, partial curve, poor fit]	–
CC(C)(C)NC(=O)C(=O)N/N=C/c1ccc(F)cc1	14.1 µM [falling, single point]	–
Cc1ccsc1/C=N/Nc1cccc(C(=O)O)c1	0.708 µM [falling, full curve]	–
COc1ccccc1CNC(=O)c1cc(-c2ccccc2)nn1Cc1cc(C)no1	20.6 µM [falling, partial curve, poor fit]	–
CCOC(=O)N1CCC(NC(=O)c2cc3c(-c4ccc(Cl)cc4)nn(C)c3s2)CC1	10.3 µM [rising, single point]	–
O=c1cnnc(N/N=C/C2CC=CCC2)[nH]1 (stereo not drawn)	–	35.5 µM [falling, partial curve, poor fit]
Cc1ccc(C(=O)C(NC(=O)c2ccco2)N2CCOCC2)cc1 (stereo not drawn)	0.82 µM [falling, partial curve, poor fit]	–
CC(=O)NNc1cccc(Cl)n1	1.12 µM [falling, full curve]	–
Cn1ccnc1SC(=O)N1c2ccccc2Sc2ccccc21	20.6 µM [rising, single point]	–
CC1=NN(c2ccc(Cl)c(C(=O)O)c2)C(=O)/C1=C/c1ccc(-c2ccccc2[N+](=O)[O-])o1	22.4 µM [falling, single point]	–
COc1ccc(C)cc1Nc1n[n+](-c2ccccc2)c(-c2ccc(SC)cc2)s1	35.5 µM [falling, single point]	35.5 µM [falling, partial curve, poor fit]

Full records, looked up by structure.
Cc1ccc(Nc2c(F)c(F)c(F)c(F)c2C(=O)O)cc1 as listed: AC50 [1]: 17.8 µM [rising, partial curve, poor fit]
CSc1ccc(C2NC(=O)c3c(sc4c3CCN(C)C4)N2)cc1 (stereo not drawn) as listed: AC50 [1]: 0.731 µM [rising, full curve, poor fit]
